Experimental data as given in the supplement of paper PMC10849652.
Some of the results follow.

By UniProt entry, the sequences of proteins in these tests, tags left out. Where a name states a change or a piece, a line headed by the entry shows the natural chain unless it says otherwise.
UniProt Q13242, whole entry, looked up: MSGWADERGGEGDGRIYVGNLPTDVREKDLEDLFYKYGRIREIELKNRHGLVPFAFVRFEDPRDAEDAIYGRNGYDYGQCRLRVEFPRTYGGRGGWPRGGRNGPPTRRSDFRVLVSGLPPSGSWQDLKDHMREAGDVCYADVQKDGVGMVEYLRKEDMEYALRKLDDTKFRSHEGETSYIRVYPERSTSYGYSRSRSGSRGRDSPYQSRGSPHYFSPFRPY
UniProt Q96EA4: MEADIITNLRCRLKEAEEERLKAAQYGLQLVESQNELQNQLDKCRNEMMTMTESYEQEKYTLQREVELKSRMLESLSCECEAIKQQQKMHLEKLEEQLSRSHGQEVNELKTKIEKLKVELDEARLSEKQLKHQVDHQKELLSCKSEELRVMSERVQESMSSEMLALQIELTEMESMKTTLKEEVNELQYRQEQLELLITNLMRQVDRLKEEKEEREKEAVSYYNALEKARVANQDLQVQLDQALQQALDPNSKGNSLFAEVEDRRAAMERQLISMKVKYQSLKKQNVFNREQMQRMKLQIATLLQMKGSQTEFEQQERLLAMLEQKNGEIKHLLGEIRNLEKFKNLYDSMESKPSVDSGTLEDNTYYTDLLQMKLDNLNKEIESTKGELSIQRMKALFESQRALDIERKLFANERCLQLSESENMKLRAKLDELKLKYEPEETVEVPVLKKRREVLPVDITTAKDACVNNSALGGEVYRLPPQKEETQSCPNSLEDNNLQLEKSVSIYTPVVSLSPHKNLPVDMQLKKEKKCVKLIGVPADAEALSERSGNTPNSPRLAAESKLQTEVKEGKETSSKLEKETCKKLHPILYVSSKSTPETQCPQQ
UniProt Q8WXA9: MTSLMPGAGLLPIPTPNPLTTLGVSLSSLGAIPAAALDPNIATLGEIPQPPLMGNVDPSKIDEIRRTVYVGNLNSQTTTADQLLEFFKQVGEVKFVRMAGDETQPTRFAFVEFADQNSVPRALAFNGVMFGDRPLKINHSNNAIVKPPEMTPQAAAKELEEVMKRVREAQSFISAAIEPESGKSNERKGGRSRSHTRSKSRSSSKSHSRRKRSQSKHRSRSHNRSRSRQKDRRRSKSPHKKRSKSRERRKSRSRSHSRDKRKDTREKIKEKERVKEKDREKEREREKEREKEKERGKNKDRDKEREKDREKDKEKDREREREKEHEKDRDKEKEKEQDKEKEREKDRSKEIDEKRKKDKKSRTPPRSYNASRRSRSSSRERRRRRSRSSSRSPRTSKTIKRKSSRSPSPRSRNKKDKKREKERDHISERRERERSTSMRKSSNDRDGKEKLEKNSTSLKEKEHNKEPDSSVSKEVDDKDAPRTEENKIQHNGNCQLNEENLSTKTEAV
UniProt Q9UHB9: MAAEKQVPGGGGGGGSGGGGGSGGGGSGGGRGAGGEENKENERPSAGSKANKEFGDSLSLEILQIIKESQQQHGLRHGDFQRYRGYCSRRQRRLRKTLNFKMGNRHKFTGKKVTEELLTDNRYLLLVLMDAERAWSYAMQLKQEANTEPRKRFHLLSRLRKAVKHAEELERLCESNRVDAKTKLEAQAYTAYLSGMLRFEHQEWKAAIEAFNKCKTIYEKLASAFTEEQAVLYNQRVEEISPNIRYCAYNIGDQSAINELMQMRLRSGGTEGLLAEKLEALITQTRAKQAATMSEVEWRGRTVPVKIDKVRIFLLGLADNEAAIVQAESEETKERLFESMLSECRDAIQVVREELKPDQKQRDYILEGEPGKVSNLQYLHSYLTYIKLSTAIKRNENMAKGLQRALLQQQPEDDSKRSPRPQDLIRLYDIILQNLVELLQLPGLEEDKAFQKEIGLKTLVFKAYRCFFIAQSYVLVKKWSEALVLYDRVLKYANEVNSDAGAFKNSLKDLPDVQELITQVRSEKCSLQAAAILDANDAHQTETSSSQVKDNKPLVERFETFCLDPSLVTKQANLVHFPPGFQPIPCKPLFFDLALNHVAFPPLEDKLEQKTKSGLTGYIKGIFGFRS
UniProt P05455: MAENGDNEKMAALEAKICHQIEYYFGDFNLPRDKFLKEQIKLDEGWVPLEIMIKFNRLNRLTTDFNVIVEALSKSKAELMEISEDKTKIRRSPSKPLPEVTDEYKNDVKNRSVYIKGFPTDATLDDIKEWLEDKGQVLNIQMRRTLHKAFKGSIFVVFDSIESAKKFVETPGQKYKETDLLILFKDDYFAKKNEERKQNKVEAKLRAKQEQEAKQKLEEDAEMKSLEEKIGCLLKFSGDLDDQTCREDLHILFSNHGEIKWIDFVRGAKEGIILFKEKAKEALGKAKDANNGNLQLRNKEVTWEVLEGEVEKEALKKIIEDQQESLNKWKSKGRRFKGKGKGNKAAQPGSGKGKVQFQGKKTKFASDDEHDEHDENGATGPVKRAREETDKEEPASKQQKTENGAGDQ
UniProt Q16385, whole entry, looked up: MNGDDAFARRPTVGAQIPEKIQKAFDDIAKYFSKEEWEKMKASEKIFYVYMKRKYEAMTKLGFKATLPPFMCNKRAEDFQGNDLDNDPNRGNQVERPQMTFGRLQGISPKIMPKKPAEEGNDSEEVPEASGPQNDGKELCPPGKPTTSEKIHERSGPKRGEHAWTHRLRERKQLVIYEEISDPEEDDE
UniProt P19623: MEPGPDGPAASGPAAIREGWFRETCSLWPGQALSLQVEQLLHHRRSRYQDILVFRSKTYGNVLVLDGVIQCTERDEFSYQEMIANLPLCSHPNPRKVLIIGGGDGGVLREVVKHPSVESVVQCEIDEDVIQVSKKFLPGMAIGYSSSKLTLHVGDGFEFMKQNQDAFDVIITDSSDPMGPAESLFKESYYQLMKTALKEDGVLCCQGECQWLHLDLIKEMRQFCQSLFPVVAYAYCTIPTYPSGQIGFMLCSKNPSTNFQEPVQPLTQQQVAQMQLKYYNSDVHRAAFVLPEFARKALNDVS
UniProt O15270: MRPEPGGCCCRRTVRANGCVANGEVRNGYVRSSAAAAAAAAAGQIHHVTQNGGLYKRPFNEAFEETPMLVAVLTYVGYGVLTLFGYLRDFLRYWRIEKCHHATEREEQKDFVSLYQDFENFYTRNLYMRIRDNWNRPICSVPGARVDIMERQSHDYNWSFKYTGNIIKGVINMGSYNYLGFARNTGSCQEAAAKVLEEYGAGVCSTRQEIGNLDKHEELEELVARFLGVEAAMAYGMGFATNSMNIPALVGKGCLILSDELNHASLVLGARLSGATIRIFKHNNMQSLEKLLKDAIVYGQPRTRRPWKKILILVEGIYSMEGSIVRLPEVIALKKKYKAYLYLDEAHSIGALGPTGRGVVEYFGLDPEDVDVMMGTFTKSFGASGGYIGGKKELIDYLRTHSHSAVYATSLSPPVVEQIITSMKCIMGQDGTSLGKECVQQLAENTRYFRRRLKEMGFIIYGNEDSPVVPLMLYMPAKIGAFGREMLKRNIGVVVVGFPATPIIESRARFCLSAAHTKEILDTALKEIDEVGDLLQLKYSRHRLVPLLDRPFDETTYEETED
UniProt P37108: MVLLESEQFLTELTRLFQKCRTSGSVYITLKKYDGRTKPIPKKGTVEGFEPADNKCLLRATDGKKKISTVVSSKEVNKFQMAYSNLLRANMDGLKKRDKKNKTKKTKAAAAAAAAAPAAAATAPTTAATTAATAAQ
UniProt Q13247: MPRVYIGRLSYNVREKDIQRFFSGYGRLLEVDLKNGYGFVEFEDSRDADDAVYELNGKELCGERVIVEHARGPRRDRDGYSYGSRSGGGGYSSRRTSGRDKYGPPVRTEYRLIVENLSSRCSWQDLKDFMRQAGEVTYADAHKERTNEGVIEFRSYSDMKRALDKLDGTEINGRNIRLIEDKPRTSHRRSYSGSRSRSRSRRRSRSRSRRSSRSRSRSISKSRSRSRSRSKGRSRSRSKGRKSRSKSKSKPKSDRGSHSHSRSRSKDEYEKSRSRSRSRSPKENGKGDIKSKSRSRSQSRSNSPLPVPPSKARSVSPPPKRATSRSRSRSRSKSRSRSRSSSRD
UniProt Q8N5C6: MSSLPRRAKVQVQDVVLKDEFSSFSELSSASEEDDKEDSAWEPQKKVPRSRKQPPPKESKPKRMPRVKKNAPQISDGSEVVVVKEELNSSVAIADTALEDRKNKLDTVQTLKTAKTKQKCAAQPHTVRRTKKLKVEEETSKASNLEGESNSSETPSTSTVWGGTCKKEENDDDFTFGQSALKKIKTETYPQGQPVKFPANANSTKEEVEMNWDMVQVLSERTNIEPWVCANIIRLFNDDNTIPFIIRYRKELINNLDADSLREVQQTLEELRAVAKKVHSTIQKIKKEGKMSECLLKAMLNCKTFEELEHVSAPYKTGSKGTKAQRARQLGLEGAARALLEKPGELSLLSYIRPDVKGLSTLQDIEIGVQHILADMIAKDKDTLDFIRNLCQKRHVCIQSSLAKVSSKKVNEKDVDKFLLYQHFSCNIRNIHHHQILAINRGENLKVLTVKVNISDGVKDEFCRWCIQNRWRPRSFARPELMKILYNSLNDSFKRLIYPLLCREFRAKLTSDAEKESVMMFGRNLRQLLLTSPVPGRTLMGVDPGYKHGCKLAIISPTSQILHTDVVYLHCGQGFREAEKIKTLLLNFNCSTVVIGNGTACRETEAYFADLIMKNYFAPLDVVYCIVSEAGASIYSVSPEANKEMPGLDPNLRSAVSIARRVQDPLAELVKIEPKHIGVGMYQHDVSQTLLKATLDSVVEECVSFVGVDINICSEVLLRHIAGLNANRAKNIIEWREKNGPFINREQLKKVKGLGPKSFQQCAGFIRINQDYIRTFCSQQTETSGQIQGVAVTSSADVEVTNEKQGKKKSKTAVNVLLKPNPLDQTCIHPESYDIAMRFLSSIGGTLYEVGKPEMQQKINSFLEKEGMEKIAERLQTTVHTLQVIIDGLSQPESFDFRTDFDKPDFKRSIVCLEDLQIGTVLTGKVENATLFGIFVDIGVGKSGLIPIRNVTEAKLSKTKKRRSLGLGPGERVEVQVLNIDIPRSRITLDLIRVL
UniProt Q69YQ0: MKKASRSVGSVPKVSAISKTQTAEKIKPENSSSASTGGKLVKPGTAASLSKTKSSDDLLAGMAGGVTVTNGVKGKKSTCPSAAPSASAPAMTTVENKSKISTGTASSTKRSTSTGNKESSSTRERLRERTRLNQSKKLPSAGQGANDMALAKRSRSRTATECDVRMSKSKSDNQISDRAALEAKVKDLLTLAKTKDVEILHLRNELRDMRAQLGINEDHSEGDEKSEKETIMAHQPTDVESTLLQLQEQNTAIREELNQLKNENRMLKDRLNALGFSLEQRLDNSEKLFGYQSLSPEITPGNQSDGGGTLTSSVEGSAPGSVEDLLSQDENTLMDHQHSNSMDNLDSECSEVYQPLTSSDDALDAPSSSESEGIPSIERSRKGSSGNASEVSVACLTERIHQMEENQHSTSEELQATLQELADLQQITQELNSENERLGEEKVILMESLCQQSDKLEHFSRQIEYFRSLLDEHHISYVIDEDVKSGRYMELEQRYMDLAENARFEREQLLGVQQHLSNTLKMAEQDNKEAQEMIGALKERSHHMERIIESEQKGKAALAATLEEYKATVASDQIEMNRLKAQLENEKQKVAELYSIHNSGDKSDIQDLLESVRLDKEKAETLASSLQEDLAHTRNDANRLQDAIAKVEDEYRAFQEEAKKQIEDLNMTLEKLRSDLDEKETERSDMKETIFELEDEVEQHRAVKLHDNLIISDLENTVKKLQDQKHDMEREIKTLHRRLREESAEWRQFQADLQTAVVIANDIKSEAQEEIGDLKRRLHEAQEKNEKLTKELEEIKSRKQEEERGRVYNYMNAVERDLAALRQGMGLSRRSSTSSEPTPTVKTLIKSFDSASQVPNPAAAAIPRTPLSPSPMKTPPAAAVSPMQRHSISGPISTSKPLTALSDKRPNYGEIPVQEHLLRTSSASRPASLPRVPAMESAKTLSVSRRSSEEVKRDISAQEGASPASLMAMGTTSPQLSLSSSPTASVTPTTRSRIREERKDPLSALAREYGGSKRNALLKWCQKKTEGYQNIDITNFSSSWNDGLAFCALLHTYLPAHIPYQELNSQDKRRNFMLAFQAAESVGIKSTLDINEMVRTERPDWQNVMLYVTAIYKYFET
UniProt Q14849, whole entry, looked up: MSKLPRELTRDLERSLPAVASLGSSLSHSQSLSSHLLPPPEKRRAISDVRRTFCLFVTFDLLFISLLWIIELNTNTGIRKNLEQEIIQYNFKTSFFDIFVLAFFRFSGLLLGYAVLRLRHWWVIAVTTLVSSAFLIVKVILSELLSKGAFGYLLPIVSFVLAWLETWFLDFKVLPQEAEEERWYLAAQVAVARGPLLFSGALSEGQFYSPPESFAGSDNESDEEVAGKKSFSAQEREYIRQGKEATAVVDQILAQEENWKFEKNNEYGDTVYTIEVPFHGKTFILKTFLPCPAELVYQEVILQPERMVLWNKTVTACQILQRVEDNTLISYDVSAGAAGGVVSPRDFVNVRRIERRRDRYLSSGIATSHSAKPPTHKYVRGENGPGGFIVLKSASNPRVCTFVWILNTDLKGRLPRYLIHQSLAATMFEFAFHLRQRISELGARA
UniProt P35325: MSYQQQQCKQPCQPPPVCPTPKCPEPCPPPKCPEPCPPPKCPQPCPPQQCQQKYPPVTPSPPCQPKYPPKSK

Legend:
Assay in all cases: log2 fold change, soluble protein after heating vs DMSO (PISA); higher = thermal stabilisation; K562 lysate, 10 uM; active = over 0.2 and 3.5 SD of the protein, either way, in both replicates (recomputed)
[1] = compound: C1=CC=C(C=C1)[C@H](COC2=CC3=C(C=C2)NC(=O)N3)NC(=O)C4=CC=CN(C4=O)CC5=CC(=C(C=C5)F)F
Outline: (§1)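 K562 pellets were dounce-homogenised in PBS pH 7.4 containing 1 mM MgCl2, and the crude extract, at 1 mg/mL protein, was exposed to 10 μM compound for 30 min. Aliquots were heated for 3 min across 48°C-58°C, pooled, brought to 0.5% NP-40 at 4°C and spun at 21,000xg for 90 min, with the supernatant taken as soluble protein. TMTpro 16plex LC-MS/MS with equalised channel sums quantified that protein. Values are log-two fold changes in thermal stability relative to solvent controls, taken from duplicates.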

[2] = compound: CC1=C(SC2=C1C(=N[C@H](C3=NN=C(N32)C)CC(=O)N)C4=CC=C(C=C4)Cl)C
Outline: as §1

[3] = compound: CC1=C2C(=CC=C1)N=C(N(C2=O)C3=CC=CC=C3C)CN4C=NC5=C(N=CN=C54)N
Outline: as §1

[4] = compound: Cc1sc2c(c1C)C(c1ccc(Cl)cc1)=N[C@@H](CC(=O)OC(C)(C)C)c1nnc(C)n1-2
Outline: as §1

[5] = compound: c1ccc([C@@H]2C[C@H]2NC2CCNCC2)cc1
Outline: as §1

Measured: log2 fold change

STAT3 isoform 2 (UniProt P40763)
inactive: [1] -0.001 | [2] 0.022 | [3] 0.015 | [4] -0.02 | [5] 0.006

SSBP4 (UniProt Q9BWG4)
inactive: [1] 0.078 | [2] -0.089 | [3] -0.062 | [5] -0.083

SRFBP1 (UniProt Q8NEF9)
inactive: [1] -0.088 | [2] 0.024 | [3] -0.092 | [4] 0.098 | [5] -0.047

SRSF9 (UniProt Q13242)
inactive: [1] 0.015 | [2] 0.024 | [3] -0.076 | [4] 0.06 | [5] -0.014

SRI (UniProt P30626)
inactive: [1] 0.019 | [2] -0.049 | [3] 0.013 | [4] -0.024 | [5] 0.058

SPDL1 (UniProt Q96EA4)
inactive: [1] -0.022 | [2] 0.036 | [3] 0.011 | [4] 0.03 | [5] 0.014

SPART (UniProt Q8N0X7)
inactive: [1] 0.072 | [2] 0.027 | [3] -0.012 | [4] 0.092 | [5] -0.006

SSR1 (UniProt P43307)
inactive: [1] 0.017 | [2] 0.008 | [3] -0.036 | [4] -0.054 | [5] -0.057

STAT3 isoform 3 (UniProt P40763)
inactive: [1] 0.042 | [2] 0.062 | [3] -0.121 | [4] 0.048 | [5] 0.004

SPTBN2 (UniProt O15020)
inactive: [1] 0.003 | [2] 0.013 | [3] 0.015 | [4] 0.029 | [5] -0.032

SPCS1, A0A5F9YFS9
inactive: [1] -0.062 | [2] 0.014 | [3] -0.001 | [4] 0.204 | [5] -0.001

SREK1 isoform 2 (UniProt Q8WXA9)
inactive: [1] 0.015 | [2] 0.033 | [3] 0.026 | [4] 0.059 | [5] -0.006

SPPL2A (UniProt Q8TCT8)
inactive: [1] -0.148 | [2] 0.118 | [3] 0.087 | [5] 0.098

SRP68 (UniProt Q9UHB9)
inactive: [1] 0.01 | [2] -0.008 | [3] 0.002 | [4] 0.029 | [5] 0.141

SSB (UniProt P05455)
inactive: [1] -0.004 | [2] 0.015 | [3] -0.009 | [4] 0.012 | [5] 0.068

STAT6 (UniProt P42226)
inactive: [1] -0.034 | [2] 0.03 | [3] 0.003 | [4] -0.015 | [5] -0.031

SSX2 (UniProt Q16385)
inactive: [1] 0.035 | [2] -0.036 | [3] 0.032 | [4] 0.035 | [5] -0.032

STARD10 (UniProt Q9Y365)
inactive: [1] 0.048 | [2] 0.019 | [3] -0.091 | [4] -0.039 | [5] 0.106

SRM (UniProt P19623)
inactive: [1] -0.007 | [2] 0.029 | [3] 0.001 | [4] 0.009 | [5] 0.039

STAG2 isoform 2 (UniProt Q8N3U4)
inactive: [1] 0.042 | [2] -0.006 | [3] 0.02 | [4] 0.014 | [5] 0.003

SPATA33 isoform 2 (UniProt Q96N06)
inactive: [1] -0.025 | [2] 0.168 | [3] -0.133 | [4] -0.053 | [5] -0.167

SPTLC2 (UniProt O15270)
inactive: [1] 0.011 | [2] -0.062 | [3] 0.015 | [4] -0.017 | [5] -0.028

SSBP4 (UniProt U3KPY3)
inactive: [1] -0.028 | [2] 0.041 | [3] -0.027 | [5] 0.118

SRP14 (UniProt P37108)
inactive: [1] 0.018 | [2] 0.013 | [3] -0.017 | [4] -0.025 | [5] -0.06

SRSF6 (UniProt Q13247)
inactive: [1] -0.003 | [2] -0.019 | [3] -0.011 | [4] -0.026 | [5] 0.084

SPC25 (UniProt Q9HBM1)
inactive: [1] 0.055 | [2] 0.044 | [3] 0.029 | [4] 0.022 | [5] 0.039

SPRY4 (UniProt Q9C004)
inactive: [1] 0.051 | [2] -0.088 | [3] -0.001 | [4] -0.031 | [5] 0.05

SRPRA (UniProt P08240)
inactive: [1] 0.016 | [2] 0.018 | [3] 0.051 | [4] 0.039 | [5] 0.071

STAT1 (UniProt P42224)
inactive: [1] -0.013 | [2] -0.007 | [3] -0.007 | [4] -0.034 | [5] 0.013

SRBD1 (UniProt Q8N5C6)
inactive: [1] 0.038 | [2] 0.001 | [3] -0.114 | [4] 0.027 | [5] -0.043

2 records drawn at random from the list so far, as already listed:
SRBD1 (UniProt Q8N5C6)
inactive: [1] 0.038 | [2] 0.001 | [3] -0.114 | [4] 0.027 | [5] -0.043

SRFBP1 (UniProt Q8NEF9)
inactive: [1] -0.088 | [2] 0.024 | [3] -0.092 | [4] 0.098 | [5] -0.047

(cont.)

SPCS3 (UniProt P61009)
inactive: [1] -0.004 | [2] -0.028 | [3] 0.063 | [4] -0.006 | [5] 0.022

SPTAN1 (UniProt Q13813)
inactive: [1] -0.001 | [2] -0.002 | [3] 0.006 | [4] -0.032 | [5] -0.008

SRSF5 (UniProt Q13243)
inactive: [1] 0.01 | [2] 0.031 | [3] 0.004 | [4] 0.008 | [5] -0.028

STAT5A (UniProt P42229)
inactive: [1] -0.012 | [2] 0.035 | [3] 0.008 | [4] 0.037 | [5] 0.025

SPECC1L (UniProt Q69YQ0)
inactive: [1] -0.043 | [2] 0.123 | [3] 0.052 | [4] -0.027 | [5] 0.07

STARD3 isoform 3 (UniProt Q14849)
inactive: [1] -0.015 | [2] 0.007 | [3] 0 | [4] -0.004 | [5] 0

SPNS1 (UniProt Q9H2V7)
inactive: [1] 0.05 | [2] 0.017 | [3] 0.023 | [4] -0.076 | [5] -0.019

SPPL2B (UniProt Q8TCT7)
inactive: [1] -0.057 | [2] 0.014 | [3] 0.073 | [4] -0.072 | [5] 0.023

SRP72 (UniProt O76094)
inactive: [1] 0.026 | [2] -0.013 | [3] 0.004 | [4] 0.046 | [5] 0

SRPRB (UniProt Q9Y5M8)
inactive: [1] 0.008 | [2] -0.036 | [3] 0.039 | [4] -0.022 | [5] 0.014

SPRR2B (UniProt P35325)
inactive: [1] -0.073 | [2] 0.154 | [5] -0.005

SSBP2 (UniProt P81877)
inactive: [3] 0.06 | [4] 0.095 | [5] 0.034
